According to the supplement of paper PMC12823440, “Inhibitors supercharge kinase turnover through native proteolytic circuits” (Nature, 2025):
Structures can show the parent of a compound that is named as a salt. The list shows a part of the results. The calls rarely recur for the same compound in another form.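 Kinases, fused to nanoluciferase, were expressed in K562 cells; luminescence was measured every 4 h from 2 to 18 h as percent of control (DMSO = 100%, positive control = 0%). A time point is decreased if signal falls significantly (2 sigma). Hits were called by the authors by a rule that is not shown; the count of time points alone does not decide it.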

Protein sequences, listed by entry. Tags and fused reporters are not part of them.
UniProt P21860, whole entry: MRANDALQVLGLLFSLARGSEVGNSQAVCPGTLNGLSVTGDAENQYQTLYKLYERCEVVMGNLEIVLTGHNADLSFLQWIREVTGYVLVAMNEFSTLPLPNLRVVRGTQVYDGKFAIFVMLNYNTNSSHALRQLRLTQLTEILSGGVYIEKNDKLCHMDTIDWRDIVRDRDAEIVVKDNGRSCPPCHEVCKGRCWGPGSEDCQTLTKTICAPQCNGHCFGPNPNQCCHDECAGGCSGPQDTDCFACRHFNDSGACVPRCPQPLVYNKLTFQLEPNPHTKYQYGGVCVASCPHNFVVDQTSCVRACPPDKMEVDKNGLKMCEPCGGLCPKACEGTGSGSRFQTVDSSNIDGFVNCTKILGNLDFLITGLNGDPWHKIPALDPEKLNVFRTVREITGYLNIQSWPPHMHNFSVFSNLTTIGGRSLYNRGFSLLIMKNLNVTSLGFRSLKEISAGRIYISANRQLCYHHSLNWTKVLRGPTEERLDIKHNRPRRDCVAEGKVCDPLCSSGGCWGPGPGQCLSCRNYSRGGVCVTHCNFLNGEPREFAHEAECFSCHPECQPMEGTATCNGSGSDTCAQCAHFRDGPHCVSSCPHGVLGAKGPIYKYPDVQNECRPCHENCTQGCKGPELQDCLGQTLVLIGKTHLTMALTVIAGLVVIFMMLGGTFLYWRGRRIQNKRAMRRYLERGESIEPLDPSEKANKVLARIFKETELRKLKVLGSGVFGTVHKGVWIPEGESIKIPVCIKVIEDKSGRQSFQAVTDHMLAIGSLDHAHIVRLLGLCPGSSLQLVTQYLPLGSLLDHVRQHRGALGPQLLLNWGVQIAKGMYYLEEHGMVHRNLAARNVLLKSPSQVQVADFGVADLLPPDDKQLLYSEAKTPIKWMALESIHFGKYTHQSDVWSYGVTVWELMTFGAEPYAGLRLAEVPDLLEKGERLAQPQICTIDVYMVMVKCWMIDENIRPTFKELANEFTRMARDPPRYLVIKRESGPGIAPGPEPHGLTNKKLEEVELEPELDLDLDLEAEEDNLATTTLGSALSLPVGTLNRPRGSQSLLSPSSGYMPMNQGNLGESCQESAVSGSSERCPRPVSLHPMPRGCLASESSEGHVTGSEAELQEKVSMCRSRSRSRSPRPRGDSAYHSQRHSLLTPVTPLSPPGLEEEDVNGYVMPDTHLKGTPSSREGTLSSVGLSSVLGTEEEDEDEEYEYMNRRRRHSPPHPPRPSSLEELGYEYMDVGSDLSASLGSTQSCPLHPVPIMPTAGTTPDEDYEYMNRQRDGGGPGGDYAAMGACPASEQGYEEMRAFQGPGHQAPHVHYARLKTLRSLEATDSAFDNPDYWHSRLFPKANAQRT

target: ERBB3 (UniProt P21860); assay: kinase-Nluc reporter destabilization hit call (1 = scored as downregulated) (binary); higher = compound decreases kinase abundance; details: 2.5 µM; K562; 2-18 h

Row | Structure (SMILES) | kinase-Nluc reporter destabilization hit call
1 | C=CC(=O)N1CCC[C@@H](n2nc(-c3ccc(Oc4ccccc4)cc3)c3c(N)ncnc32)C1 [Ibrutinib] | inactive: 0
2 | Cc1cn(-c2cc(NC(=O)c3ccc(C)c(Nc4nccc(-c5cccnc5)n4)c3)cc(C(F)(F)F)c2)cn1 [Nilotinib] | inactive: 0
3 | Cc1cc(C)n2c1C=C1C=CC(CCC(=O)NCCN3CCN(C/C=C/C(=O)N4CCCC(n5nc(-c6ccc(Oc7ccccc7)cc6)c6c(N)ncnc65)C4)CC3)=[N+]1[B-]2(F)F (stereo not given) | inactive: 0
4 | Cc1cnc(Nc2ccc(OCCN3CCCC3)cc2)nc1Nc1cccc(S(=O)(=O)NC(C)(C)C)c1 [Fedratinib (hydrochloride hydrate)] | inactive: 0
5 | C=CC(=O)Nc1cc2c(Nc3ccc(F)c(Cl)c3)ncnc2cc1OCCCN1CCOCC1 [Canertinib (dihydrochloride)] | inactive: 0
6 | O=C(Nc1cccc(Nc2nccc(Nc3cccc(C(F)(F)F)c3)n2)c1)C1CC1 [Aurora kinase inhibitor-3] | inactive: 0
7 | COc1ccc(-c2cc3nccn3c(Nc3ncccc3C(N)=O)n2)cc1OC [BAY 61-3606 (dihydrochloride)] | inactive: 0
8 | Nc1nc(Nc2ccc(S(N)(=O)=O)cc2)nn1C(=O)c1c(F)cccc1F | inactive: 0
9 | COc1cc(N2CCC(N3CCN(C)CC3)CC2)ccc1Nc1ncc(Cl)c(Nc2ccccc2S(=O)(=O)C(C)C)n1 | inactive: 0
10 | COc1cc(Nc2c(C#N)cnc3cc(OCCCN4CCN(C)CC4)c(OC)cc23)c(Cl)cc1Cl [Bosutinib] | inactive: 0
11 | CCc1cc2c(cc1-c1cnn(CC(=O)N(C)C)c1)C(C)(C)c1[nH]c3cc(C#N)ccc3c1C2=O | inactive: 0
12 | Cc1cnc(Nc2ccc(OCCN3CCCC3)cc2)nc1Nc1cccc(S(=O)(=O)NC(C)(C)C)c1 [Fedratinib] | inactive: 0
13 | Cc1cc(Nc2cc(N3CCN(C)CC3)nc(/C=C/c3ccccc3)n2)n[nH]1 [ENMD-2076 (Tartrate)] | inactive: 0
14 | Cc1cc(Nc2cc(N3CCN(C)CC3)nc(/C=C/c3ccccc3)n2)n[nH]1 | inactive: 0

same assay, conditions: 10 µM; K562; 2-18 h

Row | Structure (SMILES) | kinase-Nluc reporter destabilization hit call
15 | C=CC(=O)N1CCC([C@@H]2CCNc3c(C(N)=O)c(-c4ccc(Oc5ccccc5)cc4)nn32)CC1 [Zanubrutinib] | inactive: 0
16 | CCn1c(=O)c(-c2cc(NC(=O)Nc3ccccc3)c(F)cc2Br)cc2cnc(NC)cc21 [Ripretinib] | active: 1
17 | COc1cc(N2CCN(C)CC2)ccc1Nc1nccc(-c2cn(C)c3cnccc23)n1 | inactive: 0
18 | Fc1ccc(-c2nc(-c3ccc4ccccc4c3F)[nH]c2-c2ccncc2)cc1 | inactive: 0
19 | C=CC(=O)N(C)CCOc1c(N)ncnc1-c1cc(F)cc(NC(=O)c2ccc(C3CC3)cc2F)c1C [Remibrutinib] | inactive: 0
20 | NCCNc1ncc(C(N)=O)c(Nc2cccc(C(F)(F)F)c2)n1 [Syk Inhibitor II] | inactive: 0
21 | C[C@@H]1O[C@@H](Oc2c(-c3ccc(O)c(O)c3)oc3cc(O)cc(O)c3c2=O)[C@H](O)[C@H](O)[C@H]1O [Quercitrin] | inactive: 0
22 | CCCOc1ccc(C=C2SC(=O)NC2=O)cc1 | inactive: 0
23 | Cc1cc2c(F)c(Oc3ncnn4cc(OC[C@@H](C)O)c(C)c34)ccc2[nH]1 [Brivanib] | inactive: 0
24 | CC(C)[C@@](C)(O)[C@@H]1CN(c2nc(-c3[nH]nc4ncccc34)c(F)cc2Cl)CCN1 | inactive: 0
25 | CCCCCCCCCCCCc1ccc(S(=O)(=O)Nc2nncs2)cc1 | inactive: 0
26 | CC#CC(=O)N1CCC[C@H]1c1nc(-c2ccc(C(=O)Nc3ccccn3)cc2)c2c(N)nccn12 [Acalabrutinib] | inactive: 0
27 | CC(C)N(CCC(=O)c1ccc2ccccc2c1)Cc1ccccc1 | inactive: 0
28 | C=CC(=O)N1C[C@@H](Nc2ncnc3[nH]ccc23)CC[C@H]1C [(2R,5S)-Ritlecitinib] | inactive: 0
29 | COc1ccc(-c2cc(C(=O)NN=C(C)c3ccc(OC)c(OC)c3)[nH]n2)cc1 | inactive: 0
30 | Cn1cc(/C=C2\C(=O)Nc3cccnc32)c2ccccc21 | inactive: 0
31 | Cc1ccc2c(=O)c3cccc(CC(=O)O)c3oc2c1C [Vadimezan] | inactive: 0
32 | C[C@@H]1CN(C(=O)Nc2ccc(-c3nc(N4CCOCC4)c4cnn(CCCCCCC(=O)NO)c4n3)cc2)CCO1 [HDACs/mTOR Inhibitor 1] | inactive: 0
33 | C[C@H]1CN(C2COC2)CCN1c1ccc(Nc2cc(-c3ccnc(N4CCn5c(cc6c5CC(C)(C)C6)C4=O)c3CO)cn(C)c2=O)nc1 [Fenebrutinib] | inactive: 0
34 | Nc1ncccc1-c1nc2ccc(-c3ccccc3)nc2n1-c1ccc(C2(N)CCC2)cc1 [Miransertib] | inactive: 0
35 | C=CC(=O)Nc1cc2c(Nc3ccc(F)c(Cl)c3)ncnc2cc1OCCCN1CCOCC1 [Canertinib] | inactive: 0
36 | O=c1ncn2nc(Sc3ccc(F)cc3F)ccc2c1-c1c(Cl)cccc1Cl [Neflamapimod] | inactive: 0
37 | CCCCCC1CC1CC1CC1CCCCCCCC(=O)OC (stereo not given) | inactive: 0
38 | CC(C)(C)n1nc(-c2ccc(Cl)cc2)c2c(N)ncnc21 | inactive: 0
39 | NC1(C(=O)N[C@@H](CCO)c2ccc(Cl)cc2)CCN(c2nc[nH]c3nccc2-3)CC1 [Capivasertib] | inactive: 0
40 | Cc1ccc(O)cc1Nc1ccnc(Nc2cccc(C(N)=O)c2)n1 [Lck inhibitor 2] | inactive: 0

A different layout for part of the listing above:
COc1cc(N2CCN(C)CC2)ccc1Nc1nccc(-c2cn(C)c3cnccc23)n1
  kinase-Nluc reporter destabilization hit call: inactive: 0
CCCOc1ccc(C=C2SC(=O)NC2=O)cc1
  kinase-Nluc reporter destabilization hit call: inactive: 0
O=c1ncn2nc(Sc3ccc(F)cc3F)ccc2c1-c1c(Cl)cccc1Cl [Neflamapimod]
  kinase-Nluc reporter destabilization hit call: inactive: 0
